Changes are numbered by the printed parent chain. These are yes or no findings as the source states them, for the method shown. Some entries that bind do so weakly or less than the wild type. Values belong to the binder of their own block, whether it stands above or below them.
How the values were obtained:
[1] = target: Amyloid Beta (antigen of the Amyloid Beta ELISA) (UniProt P05067); experiment: Amyloid Beta ELISA, purified antibody, A405 against ng antibody per well
[2] = target: amyloid plaques in human brain sections (human) (UniProt P05067); experiment: immunohistochemistry, paraffin sections of human brain pretreated with formic acid
[3] = target: amyloid plaques in human brain sections (human) (UniProt P05067); experiment: immunohistochemistry on human brain sections
[4] = target: Amyloid Beta (antigen of the Amyloid Beta ELISA) (UniProt P05067); experiment: Amyloid Beta ELISA, conditioned medium of transiently transfected HEK293 cells, A405 against ng antibody per well
[5] = target: Amyloid Beta (antigen of the Amyloid Beta ELISA) (UniProt P05067); experiment: Amyloid Beta ELISA, purified antibody from NS0 cells
[6] = target: Amyloid Beta (antigen of the Amyloid Beta ELISA) (UniProt P05067); experiment: Amyloid Beta ELISA, purified antibodies, A405 against ng antibody per well
[7] = target: Amyloid Beta (antigen of the Amyloid Beta ELISA) (UniProt P05067); experiment: ELISA for binding to Amyloid Beta, conditioned medium from transient transfection
[8] = target: Amyloid Beta (antigen of the Amyloid Beta ELISA) (UniProt P05067); experiment: Amyloid Beta ELISA, conditioned medium from transient transfection
[9] = target: Amyloid Beta (antigen of the Amyloid Beta ELISA) (UniProt P05067); experiment: Amyloid Beta ELISA, purified antibodies from NS0 cells
[10] = target: T1, alanine-substituted Aβ12-20 peptide A18; experiment: ELISA, alanine-substituted Aβ12-20 peptides, hC2 at 200 ng/ml
T1 sequence (peptide, biotinylated (site not stated)): VHHQKLAFF

Chains of the proteins cited; added tags and fusions are not shown. Residues count along the entry.
UniProt P05067, residues 672-713: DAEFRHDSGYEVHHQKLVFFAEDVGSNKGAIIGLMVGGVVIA

[11] = target: T2, alanine-substituted Aβ12-20 peptide A15; experiment: as above
T2 sequence (peptide, biotinylated (site not stated)): VHHAKLVFF

[12] = target: T3, alanine-substituted Aβ12-20 peptide A14; experiment: as above
T3 sequence (peptide, biotinylated (site not stated)): VHAQKLVFF

[13] = target: T4, peptide 14 (aa 14-22 of Aβ1-42); experiment: ELISA, biotinylated peptides on streptavidin plates, hC2 at 200 ng/ml
T4 sequence (peptide, biotinylated (site not stated)): HQKLVFFAE

[14] = target: T5, peptide 16 (aa 16-24 of Aβ1-42); experiment: as above
T5 sequence (peptide, biotinylated (site not stated)): KLVFFAEDV

[15] = target: T6, peptide 13 (aa 13-21 of Aβ1-42); experiment: as above
T6 sequence (peptide, biotinylated (site not stated)): HHQKLVFFA

[16] = target: T7, peptide 15 (aa 15-23 of Aβ1-42); experiment: as above
T7 sequence (peptide, biotinylated (site not stated)): QKLVFFAED

[17] = target: T8, peptide 12 (aa 12-20 of Aβ1-42); experiment: as above
T8 sequence (peptide, biotinylated (site not stated)): VHHQKLVFF

peptide p14-22 A22 [18] = target: T9, peptide p14-22 A22; experiment: peptide ELISA: biotinylated peptide on streptavidin plate, antibody 200 ng/ml, AP anti-human IgG, O.D. 405 nm
T9 sequence (peptide, biotinylated (site not stated)): HQKLVFFAA

[19] = target: T1, alanine-substituted Aβ12-20 peptide A18; experiment: as above
[20] = target: T4, peptide 14 (aa 14-22 of Aβ1-42); experiment: as above
[21] = target: T5, peptide 16 (aa 16-24 of Aβ1-42); experiment: as above
A12 = target: T10, A12; experiment: as above
T10 sequence (peptide, biotinylated): AHHQKLVFF

[22] = target: T2, alanine-substituted Aβ12-20 peptide A15; experiment: as above
A13 = target: T11, A13; experiment: as above
T11 sequence (peptide, biotinylated): VAHQKLVFF

[23] = target: T6, peptide 13 (aa 13-21 of Aβ1-42); experiment: as above
peptide p13-21 G21 [24] = target: T12, peptide p13-21 G21; experiment: as above
T12 sequence (peptide, biotinylated (site not stated)): HHQKLVFFG

[25] = target: T7, peptide 15 (aa 15-23 of Aβ1-42); experiment: as above
[26] = target: T8, peptide 12 (aa 12-20 of Aβ1-42); experiment: as above
[27] = target: T3, alanine-substituted Aβ12-20 peptide A14; experiment: as above
peptide p14-22 A22 [28] = target: T9, peptide p14-22 A22; experiment: ELISA, third peptide library, hC2 at 200 ng/ml
peptide p13-21 G21 [29] = target: T12, peptide p13-21 G21; experiment: ELISA, third peptide library, hC2 at 200 ng/ml
[30] = target: T6, peptide 13 (aa 13-21 of Aβ1-42); experiment: ELISA on biotinylated peptides, O.D.

- binding [6]: binds
- binding [9]: binds
B3: humanized antibody C2HuVH4/HuVK2 (antibody, human IgG4 S228P, kappa, name in Kabat numbering, V domains shown)
VH: EVQLVESGGGLVQPGGSLRLSCAASGFTFSSYGMSWVRQAPGKGLELVASINSNGGSTYYPDSVKGRFTISRDNAKNSLYLQMNSLRAEDTAVYYCASGDYWGQGTTVTVSS
VL: DIVMTQSPLSLPVTPGEPASISCRSSQSLVYSNGDTYLHWYLQKPGQSPQLLIYKVSNRFSGVPDRFSGSGSGTDFTLKISRVEAEDVGVYFCSQSTHVPWTFGQGTKVEIKR

- binding [6]: binds
- binding [9]: binds
B5: humanized antibody C2 HuVH2/HuVK4 (antibody, human IgG4 S228P, kappa, name in Kabat numbering, V domains shown)
VH: B3 VH with L47W
VL: B3 VL with Q50K

- binding [10]: binds
- binding [11]: binds
- binding [12]: binds
- binding [13]: binds
- binding [14]: binds
- binding [15]: binds
- binding [16]: binds
- binding [17]: binds
- binding (peptide p14-22 A22 [18]): binds
- binding [19]: binds
- binding [20]: binds
- binding [21]: binds
- binding (A12): binds
- binding [22]: binds
- binding (A13): binds
- binding [23]: binds
- binding (peptide p13-21 G21 [24]): binds
- binding [25]: binds
- binding [26]: binds
- binding [27]: binds
- binding (peptide p14-22 A22 [28]): binds
- binding (peptide p13-21 G21 [29]): binds
- binding [30]: binds
B6: humanized monoclonal antibody hC2 (antibody, human IgG4 S228P, kappa, V domains shown)
VH: B3 VH
VL: B3 VL with F92Y

Continued, binder first:

B1: chimeric antibody C2 ChVH AF/ChVK (antibody, human IgG4 S228P, kappa, V domains shown)
VH: EVQLVESGGGLVQPGGSLKLSCAASGFTFSSYGMSWVRQTPDKRLELVASINSNGGSTYYPDSVKGRFTISRDNAKNTLYLQMSSLKSEDTAMYYCASGDYWGQGSTLTVSS
VL: B3 VL with I2V, S7T, T14S, P15L, E17D, P18Q, Q50K, V88L, Q105G, V109L
- binding [1]: binds
- binding [2]: binds
- binding [3]: binds
- binding [4]: binds
- binding [5]: binds
- binding [6]: binds
- binding [7]: binds

B2: VK-R antibody (mC2 VK-R with chimeric C2 VH) (antibody, V domains shown)
VH: B1 VH
VL: DVVMTQTPLSLPVSLGDQASISCRSSQSLVYSNGDTYLHWYLQKPGQSPKLLIYRVSNRFSGVPDRFSGSGSGTDFTLKISRVEAEDLGVYFCSQSTHVPWTFGGGTKLEIK
- binding [4]: binds
- binding [8]: binds

B4: VK-S antibody (mC2 VK-S with chimeric C2 VH) (antibody, V domains shown)
VH: B1 VH
VL: B2 VL with R55K, N58S
- binding [4]: binds
- binding [8]: binds

B7: humanized antibody C2 HuVH2/HuVK1 (antibody, human IgG4 S228P, kappa, name in Kabat numbering, V domains shown)
VH: B3 VH with L47W
VL: B3 VL with F92Y
- binding [6]: binds
- binding [9]: binds

B8: C2 HuVH AF version 2 combined with the chimeric C2 kappa chain (antibody, name in Kabat numbering, V domains shown)
VH: B3 VH with L47W
VL: B2 VL with R55K
- binding [8]: binds

From US20100297012A1
